# Experimental data as given in article PMC3210814.
# Sequences of proteins named here, by UniProt entry; tags and fusion partners are left off. Residues count along the entry.
# UniProt P00772, residues 27-266: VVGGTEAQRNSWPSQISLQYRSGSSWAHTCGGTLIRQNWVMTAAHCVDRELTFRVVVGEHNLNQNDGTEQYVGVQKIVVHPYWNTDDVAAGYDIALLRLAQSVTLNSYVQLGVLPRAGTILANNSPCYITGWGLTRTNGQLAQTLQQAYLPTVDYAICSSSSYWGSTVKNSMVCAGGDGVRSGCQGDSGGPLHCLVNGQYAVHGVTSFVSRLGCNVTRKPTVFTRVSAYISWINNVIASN
# Results are given in words; binding and its absence hold for the method and conditions named.
# Target: porcine pancreatic elastase (porcine) (UniProt P00772)
# Experiment: enzyme inhibition assay (chromogenic substrate), inhibition against inhibitor concentration; chymotrypsin or elastase 100 nM incubated with 0 to 40000 nM rSdPI for 30 min; as for trypsin, with the relevant chromogenic substrates; both purified
binder,measurement,value
"recombinant SdPI peptide (scorpion-derived protease inhibitor), wild type (peptide, UniProt P0DJ45 22-80) KNKCQLPSDVGKGKASFTRYYYNEEGGKCETFIYGGVGGNSNNFLTKEDCCRECAQGSC",binding,no binding (tested: 40000 nM)
